Test system: PAH minipig model
Test: Deposited lung dose (absorbing filters) in PAH minipig model and prediction of human dose and duration of effect
Format: in vivo, Göttingen minipig
Protocol: The anesthetized thromboxane A2 challenged PAH-minipig model (see experimental part C-2.1) is considered to be the most relevant and sensitive model for the prediction of the human minimal effective and effective doses (MED, ED). To determine effective LDs, experiments in minipigs were repeated with the difference that absorbing filters were attached at the end of the tubes to determine the deposited lung dose. […] Assuming a minimal effective ND of 3 μg/kg (5% reduction in PAP) the minimal effective deposited LD is considered as 0.15 μg/kg (see FIG. 1).
The resulting lung deposited doses in the minipig of 0.15, 0.5, 1.5 and 5 μg/kg were multiplied by 60 kg to achieve the lung dose in humans. Thus, the FPD reflecting the PAP reduction for a 60 kg human are calculated to be 9, 30, 90 and 300 μg.
Thus, via a direct up-scaling from minipig, the predictive MED (5% PAP reduction) for a human based on a 60 kg body weight is calculated to be 9 μg LDD, not considering protein binding within the respiratory tract. As a surrogate for unbound concentrations, which are the likely active concentrations in the lung, we considered respective differences in fractions unbound in plasma of minipig and human. This consideration results in a minimum effective lung dose (LD) for a 60 kg participant of 41 μg LDD for the assumed 5% reduction on PAP. Consequently, the predictive minimal human effective dose is in the range from 9 μg LDD to 41 μg LDD based on a 60 kg body weight (see FIG. 2).
This translation was also conducted for effective doses (effective PAP reduction>five up to 35 percent for longer time periods up to the complete observation period of 4 hrs) based on the relative lung deposited doses in minipigs as listed in Table 2.
For DPI products, it is assumed that the fine particle dose (FPD) is basically equivalent to the human lung deposited dose. […]

O=C(O)c1ccc(CCN(CCc2ccccc2OCc2ccc(-c3ccc(C(F)(F)F)cc3)cc2Cl)[C@H]2CCCc3nc(C(=O)O)ccc32)cc1 [comparative example 11, (5S)-5-{[2-(4-carboxyphenyl)ethyl][2-(2-{[3-chloro-4′-(trifluoromethyl)[biphenyl]-4-yl]methoxy}phenyl)ethyl]amino}-5,6,7,8-tetrahydroquinoline-2-carboxylic acid]
relative lung deposited dose (100 μg/kg nominal dose): ~5 µg/kg | nebulization efficiency (absorbing filters at the end of the tubes): 3-6 % of nominally applied doses | mean nebulization efficiency (aerosol fraction deposited on the filters) (arithmetic mean of all filter experiments): 5%

Source: patent US12138256B2, “Treatment of cardiopulmonary disorders” (Bayer Aktiengesellschaft, priority 2021, dated 2024)
